{
  "source": "PubChem BioAssay AID504467",
  "about": "(National Center for Advancing Translational Sciences (NCATS), 2011)",
  "note": "The campaign covered roughly 330,000 compounds. About 7,700 (2.3%) were called active. The shares of active, inactive and inconclusive entries below differ from those in the screen. The call rests on the fitted dose curve; in most records, active means well fitted inhibition curve with a large enough effect; inconclusive means small, poorly fitted or top-dose-only effect, or effect the other way; inactive means flat fitted curve, though single readings scatter. Where the call is inconclusive, the potency comes from a doubtful curve fit. Potency means the concentration at half of the fitted maximal effect.",
  "data": [
    {"assay": "qHTS screen for small molecules that inhibit ELG1-dependent DNA repair in human embryonic kidney (HEK293T) cells expressing luciferase-tagged ELG1; further: nearly all actives have a fitted effect of over 55% in size", "conditions": "HEK293T ELG1-luciferase reporter, luminescence, 16 h, DNA damage induced by 5-fluorouridine; series mostly up to 46.1 µM", "summary_of_the_method": "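5-Fluorouridine DNA damage + compound/DMSO, 2,000 cells/well, 16 h, 37 °C/5% CO2. ONE-Glo, 30 min RT, luminescence. Readout = decrease in reporter signal.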", "values": [
      {"smiles": "Cc1cccc(Cn2c(=O)n(CCCC(=O)NCc3ccco3)c(=O)c3ccccc32)c1", "Potency": "inconclusive: 11.6 µM [inhibitor, partial curve]"},
      {"smiles": "CCn1c(C)nc2cc(C(=O)NNC(=S)Nc3ccccc3OC)ccc21", "Potency": "inconclusive: 29.1 µM [activator, single point]"},
      {"smiles": "COCCn1c(SCC(=O)c2[nH]c(C)c(C(C)=O)c2C)nc2ccccc21", "Potency": "active: 25.9 µM"},
      {"smiles": "CCOC(=O)C1C(=O)N(O)CC1c1cccc(Oc2ccccc2)c1", "note": "(stereo unspecified)", "Potency": "inconclusive: 16.4 µM [inhibitor, partial curve]"},
      {"smiles": "O=C(c1ccccc1)c1nnc(-c2ccccc2F)o1", "Potency": "inconclusive: 20.6 µM [activator, partial curve]"},
      {"smiles": "COc1ccccc1OCCNC(=O)c1ccccc1OCc1c(C)noc1C", "Potency": "inconclusive: 35.5 µM [inhibitor, single point]"},
      {"smiles": "Cc1nc(C(F)(F)F)c(C(=O)NC(=O)Nc2ccccc2)s1", "Potency": "inconclusive: 8.2 µM [activator, partial curve, poor fit]"},
      {"smiles": "c1ccc(CNCC2COc3ccccc3O2)cc1", "note": "(stereo unspecified)", "Potency": "inconclusive: 29.1 µM [activator, single point]"},
      {"smiles": "Fc1cccc(CSc2nnc3c(n2)[nH]c2ccccc23)c1", "Potency": "inconclusive: 1.83 µM [inhibitor, partial curve]"},
      {"smiles": "CNc1nnc(CSc2nc3ccccc3s2)s1", "Potency": "inconclusive: 14.6 µM [activator, partial curve]"},
      {"smiles": "O=C(Nc1ccc(F)cc1)c1nc(S(=O)(=O)Cc2ccccc2)ncc1Cl", "Potency": "inconclusive: 29.1 µM [inhibitor, single point]"},
      {"smiles": "COc1ccc(OCC(O)CON2C(=O)c3ccccc3C2=O)cc1", "note": "(stereo unspecified)", "Potency": "inactive"},
      {"smiles": "O=C(CCn1nc(-c2ccc(Cl)cc2)ccc1=O)N1CCN(c2ccccc2)CC1", "Potency": "inconclusive: 29.1 µM [inhibitor, single point]"},
      {"smiles": "O=C(Nc1cc(-c2ccccc2)[nH]n1)c1ccccc1", "Potency": "inconclusive: 2.31 µM [activator, full curve]"},
      {"smiles": "CCOC(=O)CCCNC(=O)CCNC(=O)c1ccc(OC(C)C)cc1", "Potency": "inconclusive: 29.1 µM [activator, single point]"},
      {"smiles": "O=C(CCS(=O)(=O)c1cccc2nonc12)NCc1ccc(Cl)cc1", "Potency": "inactive"},
      {"smiles": "CCOc1cc(/C=N\\NC(=O)c2ccc(C)nc2)ccc1OC(=O)c1ccc(F)cc1", "Potency": "inactive"},
      {"smiles": "Cc1ccc(OCC(=O)Nc2cc(C(=O)O)cc(C(=O)O)c2)cc1C", "Potency": "inactive"},
      {"smiles": "CC(=O)C1=C(C)OC(N)=C(C#N)C1c1cccnc1", "note": "(stereo unspecified)", "Potency": "inactive"},
      {"smiles": "Cc1ccc(C(=O)Nc2ccc(SC(F)F)cc2)s1", "Potency": "inconclusive: 2.59 µM [activator, partial curve]"},
      {"smiles": "CCOC(=O)N1CCC(NC(=O)CSCc2nc(-c3ccc(OCC)cc3)oc2C)CC1", "Potency": "active: 13 µM"},
      {"smiles": "CC1CCN(c2nc3ccccc3nc2C(C#N)C(=O)OC2CCCCC2)CC1", "note": "(stereo unspecified)", "Potency": "inactive"},
      {"smiles": "Cc1cc(CN2CCCC(C(=O)Nc3cccc(-n4cccn4)c3)C2)cc(C)c1O", "note": "(stereo unspecified)", "Potency": "inconclusive: 6.51 µM [inhibitor, full curve]"},
      {"smiles": "CCCCC(=O)O[C@]1(C(=O)CO)CC[C@H]2[C@@H]3CCC4=CC(=O)CC[C@]4(C)[C@H]3[C@@H](O)C[C@@]21C", "Potency": "inconclusive: 0.103 µM [activator, full curve]"},
      {"smiles": "COc1cc(CNCc2ccccc2)cc(Cl)c1OC", "Potency": "inactive"},
      {"smiles": "CCCn1ncc(CN2CCC(Oc3ccc(C(=O)N4CCCC4)cc3)CC2)c1C", "Potency": "inactive"},
      {"smiles": "CC1CCCCN1CC(O)COc1ccc(OCC(O)CN2CCCCC2C)cc1", "note": "(stereo unspecified)", "Potency": "inconclusive: 18.3 µM [activator, partial curve, poor fit]"},
      {"smiles": "Cc1ccc(NC(=O)CSc2ncc3ccccn23)cc1", "Potency": "inconclusive: 23.1 µM [activator, partial curve]"},
      {"smiles": "CCN1CCN(C(=O)c2cc(-c3cccnc3)nc3ccc(Br)cc23)CC1", "Potency": "inconclusive: 18.4 µM [inhibitor, partial curve]"},
      {"smiles": "Cc1ccc(-n2nc3cc(Cl)c(NC(=O)c4ccco4)cc3n2)cc1", "Potency": "inconclusive: 20.6 µM [activator, partial curve]"},
      {"smiles": "O=C(OCc1cc(=O)n2ccsc2n1)c1ccccc1O", "Potency": "inconclusive: 13 µM [activator, partial curve]"},
      {"smiles": "COc1cc(-c2cc(C(=O)OCC(=O)NC3CC3)c3ccccc3n2)cc(OC)c1OC", "Potency": "active: 11.6 µM"},
      {"smiles": "Cc1ccc(F)cc1NCC(=O)Nc1ccc(Br)cc1", "Potency": "inconclusive: 16.4 µM [activator, single point]"},
      {"smiles": "CC(c1ccco1)N(C(=O)COc1ccc(Cl)cc1)c1ccccn1", "note": "(stereo unspecified)", "Potency": "inconclusive: 16.4 µM [activator, partial curve]"},
      {"smiles": "CC(C)CCn1c(N)c(S(=O)(=O)c2cccs2)c2nc3ccccc3nc21", "Potency": "inconclusive: 20.6 µM [inhibitor, single point]"},
      {"smiles": "CCOc1c(/C=C(\\C#N)C(N)=O)c2ccccc2n1CC", "Potency": "active: 13 µM"},
      {"smiles": "COc1cccc(/C=C/C(=O)NCc2ccc(S(N)(=O)=O)cc2)c1", "Potency": "inconclusive: 16.4 µM [activator, partial curve, poor fit]"},
      {"smiles": "NC(=O)C(=O)N/N=C1\\CCc2ccccc21", "Potency": "inconclusive: 20.6 µM [activator, partial curve]"},
      {"smiles": "Cc1cc(NC(=O)C(C)SCC(=O)Nc2ccccc2N2CCCCC2)no1", "note": "(stereo unspecified)", "Potency": "inactive"},
      {"smiles": "Cc1csc(SCC(=O)c2cc(C)n(Cc3cccs3)c2C)n1", "Potency": "inconclusive: 0.731 µM [activator, full curve]"},
      {"smiles": "O=C(Nc1cccc(F)c1)Nc1ccc2c(c1)OCO2", "Potency": "inconclusive: 6.51 µM [activator, partial curve]"},
      {"smiles": "Cc1ccc(C(=O)N(Cc2nc3ccccc3c(=O)[nH]2)C2CCCC2)cc1", "Potency": "inactive"},
      {"smiles": "CCCCNC(=O)C1CC(c2cccc(F)c2)=NO1", "note": "(stereo unspecified)", "Potency": "inconclusive: 16.4 µM [activator, partial curve]"},
      {"smiles": "O=C(Nc1ccc(Br)cc1)c1cccc(S(=O)(=O)Nc2ccccn2)c1", "Potency": "inactive"},
      {"smiles": "Cc1ccc(C(=O)OCc2nc3ccccc3s2)o1", "Potency": "inconclusive: 18.3 µM [activator, partial curve, poor fit]"},
      {"smiles": "Oc1c(Cl)cc(Cl)cc1/C=N/NC(=S)NC1CC2C=CC1C2", "note": "(stereo unspecified)", "Potency": "active: 14.6 µM"}
    ]}
  ]
}
